Test results from PubChem BioAssay (NCATS).
Several values for one entry are separate records, joined by “and”; a condition that tells them apart may be missing. Identical values can stand only once. The list shows a part of the results. The main result of the screen is listed elsewhere. These columns were measured beside it and carry no call. Most of these compounds were active or inconclusive in the main read-out, so they are no random draw. Potencies come from curve fits of mixed quality, noted in brackets.

Experiment: qHTS assay for small molecule antagonists of peroxisome proliferator-activated receptor gamma signaling (AID 588537)
Conditions: HEK293 PPARg-UAS-bla, beta-lactamase ratio, antagonist mode; measured here: W460 blue channel
Outline: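 HEK293 cells, PPAR-gamma-UAS-bla, 3000/well. Pre-incubation 6-6.5 h, 37 C. Compound titration with rosiglitazone 50 nM final, 16 h. CCF4 dye, 2 h RT, dual-emission fluorescence.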

Structure (SMILES)	AC50
COc1cccc2sc(N)nc12	0.891 µM [falling, full curve, poor fit]
COC(C)=O	50.1 µM [rising, single point]
CC(C)C(C)(C)C(C)(C)C(C)(C)S	0.00355 µM [falling, full curve, poor fit]
Cc1ccc(S(=O)(=O)NC2CCCCC2)cc1	50.1 µM [rising, single point]
Cc1ccccc1C#N	70.8 µM [rising, single point]
CCCCCCCCCCCCCCCCCC(=O)O	100 µM [rising, single point] and 1.26 nM [falling, full curve, poor fit]
Cc1cc(C)cc([N+](=O)[O-])c1	50.1 µM [rising, single point]
Cc1ccc(N=Nc2c(O)ccc3ccccc23)c([N+](=O)[O-])c1	28.2 µM [falling, full curve, poor fit]
CCCCC(CC)CO (stereo not given)	44.7 µM [rising, single point]
COCC(=O)O	0.0355 µM [falling, full curve, poor fit]
Nc1cccc(O)c1	63.1 µM [rising, single point]
C=C[Si](OCCOC)(OCCOC)OCCOC	0.00112 µM [falling, full curve, poor fit]
C=C(C)C(N)=O	50.1 µM [rising, single point]
CC/C=C1/OC(=O)c2ccccc21	63.1 µM [rising, single point]
CCCCCCCCCCCCCCN(C)C	0.00282 µM [rising, full curve, poor fit]
CC1(C)CC(N)CC(C)(CN)C1 (stereo not given)	0.00126 µM [falling, full curve, poor fit]
N#CCc1ccccc1[N+](=O)[O-]	63.1 µM [rising, single point]
Cc1ccc(N(C)C)cc1	50.1 µM [rising, single point]
CCCCC(CC)COC(=O)CCCCC(=O)OCC(CC)CCCC (stereo not given)	0.00447 µM [falling, full curve, poor fit]
CC(C)C=O	70.8 µM [rising, single point]

Structure (SMILES)	AC50
CCCCCCCCCCCCCCCCCCN	0.0316 µM [falling, full curve, poor fit]
O=CCCCC=O	44.7 µM [rising, single point]
CCOCCO	50.1 µM [rising, single point]
CC1CCC(C(C)C)C(O)C1 (stereo not given)	0.00282 µM [falling, full curve, poor fit]
c1ccc2ncccc2c1	63.1 µM [rising, single point]
C=CCOC(=O)COCCC(C)C	50.1 µM [rising, single point]
CC(C)c1cccc(C(C)C)c1	0.0447 µM [falling, full curve, poor fit]
CC(C)=CCC/C(C)=C/C=O	50.1 µM [rising, single point] and 2.51 nM [falling, full curve, poor fit]
CCCCCCCC/C=C\CCCCCCCC(=O)O	50.1 µM [rising, partial curve, poor fit]
c1ccccc1	1260 µM [falling, single point]
C/C=C(/C)C#N	70.8 µM [rising, single point]
CCCCCCCC(=O)O	0.00562 µM [falling, full curve, poor fit]
O=[N+]([O-])c1ccccc1CCO	70.8 µM [rising, single point]
CC(=O)c1nccs1	63.1 µM [rising, single point]
OC[C@@H](O)[C@@H](O)[C@H](O)[C@@H](O)CO	0.000891 µM [falling, full curve, poor fit]
C[C@]12C=CC(=O)C=C1CC[C@@H]1[C@@H]2C(=O)C[C@@]2(C)[C@H]1CC[C@]2(O)C(=O)CO	50.1 µM [rising, single point]
C1CCCNCC1	44.7 µM [rising, single point]
CN(C)c1cccc(O)c1	50.1 µM [rising, single point]
CCCCCCCCCCCCCCCC(=O)O	0.00316 µM [falling, full curve, poor fit]
Cc1ccc2cccnc2c1	63.1 µM [rising, single point]
